This passage reports cell number change and AC50 results from PubChem BioAssay AID2685 (National Center for Advancing Translational Sciences (NCATS), 2010).

The experiment is described as follows: qHTS Assay for Lipid Storage Modulators in Drosophila S3 Cells.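 As to cell number change: cells counted by Cell Tracker Red CMTPX staining in the red channel.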 The settings on record: BODIPY lipid droplet fluorescence, 18-24 h; for cell number change: measured here: cell count max response, cells fed with added oleic acid. The essentials:
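Laser-scanning cytometry quantifies lipid droplet accumulation (500–530 nm total intensity; droplet/cell object ratio) in oleic acid-fed (400 uM added) Drosophila S3 cells treated with a concentration series. 20 uM Triacsin C defined 100% inhibition.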

Setting [1] is: measured here: cell number channel AC50, cells fed with added oleic acid.
The mark [2] stands for this setting: measured here: lipid fluorescence (Fed channel) AC50, cells fed with added oleic acid.

Some of the results follow. Shown are side measurements of this screen, not its main read-out; they come without a call. Most of these compounds were active or inconclusive in the main read-out, so they are no random draw. The note in brackets gives the kind of curve behind each potency; many fits are weak.

For the molecule `CC(C)(C)c1ccc(C(=O)Nc2ccc(C=C(C#N)C#N)cc2)cc1`, the cell number change was -2.52%. For the same molecule, under setting [1], the AC50 was 0.164 µM [falling, full curve, poor fit]. The AC50 under setting [2] is 32.6 µM [falling, single point].

Regarding `COCCCC1CCN(C(=O)C2CCC(=O)N(Cc3cccc(F)c3)C2)CC1` (centres undefined), the cell number change came to 38.2%. The AC50 under setting [1] was 29.1 µM [rising, single point].

As to `Cc1ccc(NC(=O)CN2C(=O)S/C(=C/c3ccncc3)C2=O)cc1`, the cell number change is -13.6%.

With `CCC(=O)N1CCc2cc(Br)cc(S(=O)(=O)CCC(=O)NCCOC)c21`, the cell number change came to 33.1%. Further, the concentration at half-maximal activity (AC50) under setting [1] was 16.4 µM [rising, single point]. Besides, the concentration at half-maximal activity (AC50) under setting [2] is 23.1 µM [rising, single point].

Regarding `O=C(Nc1ccc(F)cc1)c1cccc(C(=O)Nc2ccc(F)cc2)c1`, the AC50 under setting [2] was 0.184 µM [falling, full curve].

For `COc1ccc(OC)c(NS(=O)(=O)c2ccc(-c3coc(C)n3)cc2)c1`, the cell number change stood at 21.4%. For the same molecule, under setting [2], the concentration at half-maximal activity (AC50) is 29.1 µM [rising, single point].

On to `COc1ccc(N2CC(C(=O)Nc3ccc(S(=O)(=O)Nc4nc(C)cc(C)n4)cc3)CC2=O)cc1` (centres undefined), for which the cell number change stood at 4.15%. The half-maximal activity concentration (AC50) under setting [2] was 1.3 µM [falling, full curve, poor fit].

In the case of `CC[C@@H](C)[C@H](NS(=O)(=O)c1ccc(C)cc1)C(=O)N1CCC(C(=O)NCC(=O)O)CC1`, the cell number change came to 2.47%.

Consider `CCNC(=O)Cn1cnc2c1c(=O)n(C)c(=O)n2C`, for which the cell number change is -132%. Besides, the half-maximal activity concentration (AC50) under setting [1] was 2.91 µM [falling, full curve]. The concentration at half-maximal activity (AC50) under setting [2] was 2.59 µM [falling, full curve].

On to `COc1ccc(Nc2nc(N3CCCC3)nc(N3CCCC3)n2)c(OC)c1`, for which the half-maximal activity concentration (AC50) under setting [1] was 6.51 µM [rising, single point].

For the molecule `O=C(CCNC(=O)c1ccco1)NCCN1C(=O)S/C(=C\c2ccc(F)cc2)C1=O`, the cell number change was 12%. For the same molecule, the AC50 under setting [2] is 1.46 µM [rising, full curve, poor fit].

For the molecule `O=C(Nc1ccc2c(c1)OCCO2)c1ccc(NC(=O)C2CCCO2)cc1` (centres undefined), the cell number change was 5.2%. For the same molecule, under setting [2], the AC50 is 16.4 µM [rising, single point].

For the molecule `c1ccc(CN2CCN(c3ncnc4nc[nH]c34)CC2)cc1`, the AC50 under setting [1] is 7.31 µM [rising, single point].

On to `CCc1ccc2c(c1)C1(NN=C(c3ccc(C)cc3)S1)C(=O)N2` (centres undefined), for which the cell number change is -78.1%. Moreover, the AC50 under setting [1] was 20.6 µM [falling, partial curve]. The AC50 under setting [2] was 23.1 µM [falling, single point].

For `N#C/C(=C(/O)COc1ccc(Cl)cc1)c1nc2ccccc2s1`, the cell number change was -20.6%. In addition, the half-maximal activity concentration (AC50) under setting [2] is 2.31 µM [falling, full curve].

`CN1/C(=C\C(=O)COC(=O)c2ccc(O)cc2)C(C)(C)c2ccccc21`: the cell number change is -5.12%. Also, the AC50 under setting [2] is 32.6 µM [falling, single point].

`CCN1C(=O)CC(NC2CCN(C(=O)c3ccc(F)cc3)CC2)C1=O` (centres undefined): the cell number change amounted to 14.7%. Also, under setting [2], the concentration at half-maximal activity (AC50) was 13 µM [falling, partial curve].

As for `O=S1(=O)CCOCCCN1Cc1ccccc1`, the cell number change was 15.9%. Moreover, the AC50 under setting [1] is 0.411 µM [rising, partial curve]. For the same molecule, under setting [2], the AC50 was 6.51 µM [rising, single point].

In the case of `CCn1c(=O)cc(SCC(=O)NCc2ccc3c(c2)OCO3)c2ccccc21`, the cell number change was 148%. In addition, under setting [1], the AC50 was 29.1 µM [rising, partial curve, poor fit].

Turning to `COC(=O)c1c(NC(=O)Cc2ccccc2)sc2c1CCN(C(C)C)C2`, the cell number change came out at 5.48%.

With `COc1ccc(-n2c(C)cc(/C=C3/SC(=S)N(C)C3=O)c2C)cc1`, the cell number change stood at 27%.

As to `O=C(NCC(=O)N1CCN(c2cccc(Cl)c2)CC1)c1ccc(Br)o1`, the cell number change was 0.798%. For the same molecule, the half-maximal activity concentration (AC50) under setting [2] is 32.6 µM [rising, single point].

For the molecule `COc1cc(C(=O)N2CCN(C(=O)C(Cc3cc(C)ccc3C)NC(C)=O)CC2)cc(OC)c1OC` (centres undefined), the cell number change was 23.2%. The half-maximal activity concentration (AC50) under setting [2] was 20.6 µM [rising, single point].

For the molecule `CC(C)C(NC(=O)c1cccc(S(=O)(=O)N2CCOCC2)c1)C(=O)NCc1ccc(Cl)cc1` (centres undefined), the cell number change turned out to be 6.36%. Besides, the half-maximal activity concentration (AC50) under setting [2] was 32.6 µM [falling, single point].

On to `COC(=O)c1nc(NC(=O)c2ccc(Cl)cc2)n[nH]1`, for which the cell number change came out at 3.16%. Further, the half-maximal activity concentration (AC50) under setting [2] is 29.1 µM [falling, partial curve].

For `CCSc1nnc(NC(=O)c2ccc(Br)s2)s1`, the cell number change is -10.1%. For the same molecule, the half-maximal activity concentration (AC50) under setting [2] is 23.1 µM [falling, single point].

Take `Cc1ccc(/C=N/NC(=O)c2nnn(-c3nonc3N)c2CN(C)C)s1`: the cell number change is 30.2%. Also, the concentration at half-maximal activity (AC50) under setting [1] is 29.1 µM [rising, single point]. In addition, the concentration at half-maximal activity (AC50) under setting [2] is 0.58 µM [falling, single point].

Take `Cc1cc(C)c2c(c1)C(=O)/C(=C/c1ccc(C(=O)O)cc1)CC2`: the cell number change is -10.3%. Under setting [2], the half-maximal activity concentration (AC50) was 0.58 µM [rising, single point].

Consider `CCOc1ccc(C(=O)NCCCn2ccnc2)cc1`, for which the cell number change amounted to 2.43%. Under setting [2], the concentration at half-maximal activity (AC50) is 8.2 µM [rising, partial curve, poor fit].

Turning to `COc1ccc(OC)c(C(C)NC(=O)c2ccc(Br)cc2)c1` (centres undefined), the cell number change was -35.6%. The AC50 under setting [1] is 18.4 µM [falling, single point].

For the molecule `CC1=CCC(C(=O)O)C(C(=O)O)C1` (centres undefined), the cell number change was found to be 1.18%. Besides, under setting [2], the AC50 is 0.58 µM [falling, full curve].

Turning to `COC(=O)N[C@@H]1C[C@H]2[C@@H]3CC[C@H]4C[C@@H](OC)CC[C@]4(C)[C@H]3CC[C@]12C`, the cell number change was found to be 13.2%. Moreover, the half-maximal activity concentration (AC50) under setting [2] was 0.731 µM [rising, partial curve, poor fit].

`Cc1cccc(N(C(=O)CCC(=O)Nc2cc(C)on2)C(C(=O)NC2CCCC2)c2ccncc2)c1` (centres undefined): the cell number change worked out at 0.862%. Under setting [2], the half-maximal activity concentration (AC50) was 0.58 µM [rising, single point].

For the molecule `Cc1ccc(C23CC4CC(CC(CC(=O)NC(C)(C)CO)(C4)C2)C3)cc1`, the cell number change is -20.1%. In addition, the half-maximal activity concentration (AC50) under setting [2] was 10.3 µM [falling, partial curve].

As for `O=C(NNc1nc2ccccc2s1)c1ccc(F)cc1`, the cell number change is -9.03%. Also, under setting [2], the half-maximal activity concentration (AC50) is 1.16 µM [falling, full curve, poor fit].

Take `NC(N)=N/N=C/c1ccc(Br)cc1`: the AC50 was 2.06 µM [falling, partial curve] under setting [1] and 4.11 µM [falling, single point] under setting [2].

Take `O=C1CCCc2c1[nH]c1ccc(CN3CCCCC3)cc21`: the cell number change is 36.8%. Moreover, the concentration at half-maximal activity (AC50) under setting [1] was 29.1 µM [rising, single point]. Under setting [2], the AC50 is 20.6 µM [rising, single point].
